Where a name gives a salt, the structure may show the parent alone. Some of these results come from one statement about several compounds together.
Biological target: T1, human PPARα (Homo sapiens, UniProt Q07869)
T1 construct: amino acids S167-Y468; expressed in transfected cells; host or cells: HEK (human embryo kidney) cells, stably transfected with pcDNA3 carrying the fusion construct
T1 sequence (Q07869 167-468): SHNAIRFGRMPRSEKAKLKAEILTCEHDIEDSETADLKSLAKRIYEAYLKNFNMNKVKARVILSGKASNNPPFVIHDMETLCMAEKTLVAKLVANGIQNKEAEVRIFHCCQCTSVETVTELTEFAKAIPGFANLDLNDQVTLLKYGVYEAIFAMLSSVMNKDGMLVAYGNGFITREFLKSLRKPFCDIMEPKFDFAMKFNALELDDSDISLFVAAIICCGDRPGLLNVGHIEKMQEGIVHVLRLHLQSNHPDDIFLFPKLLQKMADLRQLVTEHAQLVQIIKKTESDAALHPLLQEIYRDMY
Test: Cellular PPARalpha assay (stably transfected HEK PPARalpha reporter cell line, luciferase)
Format: cell-based
Conditions: range over the examples; each bound printed with its own unit (nm, μM)
Protocol: (A) Determination of EC50 Values of PPAR Agonists in the Cellular PPARalpha Assay
The potency of substances that bind to human PPARα and activate in an agonistic manner is analyzed using a stably transfected HEK cell line (HEK=human embryo kidney) which is referred to here as PPARalpha reporter cell line. It contains two genetic elements, a luciferase reporter element (pΔM-GAL4-Luc-Zeo) and a PPARalpha fusion protein (GR-GAL4-humanPPARα-LBD) that mediates expression of the luciferase reporter element depending on a PPARalpha ligand. The stably and constitutively expressed fusion protein GR-GAL4-humanPPARalpha-LBD binds in the cell nucleus of the PPARalpha reporter cell line via the GAL4 protein portion to the GAL4 DNA binding motifs 5′-upstream of the luciferase reporter element which is integrated in the genome of the cell line. There is only little expression of the luciferase reporter gene without addition of a PPARalpha ligand if fatty acid-depleted fetal calf serum (cs-FCS) is used in the assay. PPARα ligands bind and activate the PPARα fusion protein and thereby bring about expression of the luciferase reporter gene. The luciferase which is formed can be detected by means of chemiluminescence via an appropriate substrate.
The PPARalpha reporter cell line was prepared in 2 stages. Firstly, the luciferase reporter element was constructed and stably transfected into HEK cells. For this purpose, five binding sites of the yeast transcription factor GAL4 (each 5′-CGGAGTACTGTCCTCCGAG-3′ (SEQ ID NO:1)) were cloned in 5′-upstream of a 68 bp-long minimal MMTV promoter (Genbank Accession # V01175). The minimal MMTV promoter section contains a CCAAT box and a TATA element in order to enable efficient transcription by RNA polymerase II. The cloning and sequencing of the GAL4-MMTV construct took place in analogy to the description of Sambrook J. et. al. (Molecular cloning, Cold Spring Harbor Laboratory Press, 1989). Then the complete Photinus pyralis gene (Genbank Accession # M15077) was cloned in 3′-downstream of the GAL4-MMTV element. After sequencing, the luceriferase reporter element consisting of five GAL4 binding sites, MMTV promoter and luciferase gene was recloned into a plasmid which confers zeocin resistance in order to obtain the plasmid pΔM-GAL4-Luc-Zeo. This vector was transfected into HEK cells in accordance with the statements in Ausubel, F. M. et al. (Current protocols in molecular biology, Vol.1-3, John Wiley & Sons, Inc., 1995). […] In a second step, the PPARalpha fusion protein (GR-GAL4-humanPPARalpha-LBD) was introduced into the stable cell clone described. For this purpose, initially the cDNA coding for the N-terminal 76 amino acids of the glucocorticoid receptor (Genbank Accession # P04150) was linked to the cDNA section coding for amino acids 1-147 of the yeast transcription factor GAL4 (Genbank Accession # P04386). The cDNA of the ligand-binding domain of the human PPARalpha receptor (amino acids S167-Y468; Genbank Accession # S74349) was cloned in at the 3′-end of this GR-GAL4 construct. The fusion construct prepared in this way (GR-GAL4-humanPPARalpha-LBD) was recloned into the plasmid pcDNA3 (from Invitrogen) in order to enable constitutive expression therein by the cytomegalovirus promoter. This plasmid was linearized with a restriction endonuclease and stably transfected into the previously described cell clone containing the luciferase reporter element. The finished PPARalpha reporter cell line that contains a luciferase reporter element and constitutively expresses the PPARalpha fusion protein (GR-GAL4-human PPARalpha-LBD) was isolated by selection with zeocin (0.5 mg/ml) and G418 (0.5 mg/ml).
The activity of PPARalpha agonists is determined in a 3-day assay described below: […]

EC50 | Compound
≥ 0.07 nM | CCCC(CCC)(CC[C@H]1CCC[C@@H](OCc2nc(-c3cccc(C(F)(F)F)c3)oc2C)C1)C(=O)O (relative stereo) [Example 77, 2-(2-{cis-3-[5-Methyl-2-(3-trifluoromethylphenyl)oxazol-4-ylmethoxy]cyclo-hexyl}ethyl)-2-propylpentanoic acid]
≥ 0.07 nM | COc1cccc(-c2nc(CO[C@@H]3CCC[C@H](CCC(C(=O)O)C(C)C)C3)c(C)o2)c1 (relative stereo) [Example 74, 2-(2-{cis-3-[2-(3-methoxyphenyl)-5-methyloxazol-4-ylmethoxy]cyclohexyl}ethyl)-3-methylbutyric acid]
≥ 0.07 nM | COc1cccc(-c2nc(CO[C@@H]3CCC[C@H](CCCC(=O)O)C3)c(C)o2)c1 (relative stereo) [Example 67, 4-{cis-3-[2-(3-Methoxyphenyl)-5-methyloxazol-4-ylmethoxy]cyclohexyl}-butyric acid]
≥ 0.07 nM | Cc1ccc(-c2nc(CO[C@@H]3CCC[C@H](CCC(Cc4ccccc4)C(=O)O)C3)c(C)o2)cc1 (relative stereo) [Example 75, 2-Benzyl-4-[cis-3-(5-methyl-2-p-tolyloxazol-4-ylmethoxy)cyclohexyl]butyric Acid]
≥ 0.07 nM | Cc1ccc(-c2nc(CO[C@@H]3CCC[C@H](CN(CC(=O)O)CC4CCCCC4)C3)c(C)o2)cc1 (relative stereo) [Example 54, 2-{cyclohexylmethyl-[cis-3-(5-methyl-2-p-tolyloxazol-4-ylmethoxy)-cyclohexylmethyl]amino}acetic acid trifluoroacetic acid salt]
≥ 0.07 nM | CCc1oc(-c2ccc(C(C)C)cc2)nc1COC[C@@H]1CCC[C@H](COC(C)(C)C(=O)O)C1 (racemic) [Example 63, 2-[cis-3-(5-ethyl-2-p-isopropyloxazol-4-ylmethoxy-methyl)cyclohexylmethoxy]-2-methylpropionic acid]
≥ 0.07 nM | Cc1cccc(-c2nc(COC3CCCC(CCN(C(=O)OCc4ccccc4)C4(C(=O)O)CCCC4)C3)c(C)o2)c1 (racemic) [Example 80, 1-(benzyloxycarbonyl-{2-[cis-3-(5-methyl-2-m-tolyloxazol-4-ylmethoxy)-cyclohexyl]ethyl}amino)cyclopentanecarboxylic acid]
≥ 0.07 nM | Cc1cccc(-c2nc(CO[C@@H]3CCC[C@H](CCN(CC(=O)O)C(=O)Nc4ccccc4)C3)c(C)o2)c1 (relative stereo) [Example 85, (1-{2-[cis-3-(5-methyl-2-m-tolyloxazol-4-ylmethoxy)-cyclohexyl]ethyl}-3-phenylureido)acetic acid]
≥ 0.07 nM | CCc1oc(-c2cccc(OC)c2)nc1COC[C@@H]1CCC[C@H](COC(C)(C)C(=O)O)C1 (relative stereo) [Example 60, 2-[cis-3-(5-ethyl-2-(3-methoxyphenyl)oxazol-4-ylmethoxymethyl)cyclohexylmethoxy]-2-methylpropionic acid]
≥ 0.07 nM | Cc1ccc(-c2nc(CO[C@@H]3CCC[C@H](CCC(CC(C)C)C(=O)O)C3)c(C)o2)cc1 (relative stereo) [Example 76, 4-Methyl-2-{2-[cis-3-(5-methyl-2-p-tolyloxazol-4-ylmethoxy)cyclohexyl]-ethyl}pentanoic Acid]
≥ 0.07 nM | Cc1cccc(-c2nc(CO[C@@H]3CCC[C@H](CCN(CC(=O)O)C(=O)Cc4ccccc4)C3)c(C)o2)c1 (relative stereo) [Example 84, ({2-[cis-3-(5-methyl-2-m-tolyloxazol-4-ylmethoxy)-cyclohexyl]ethyl}phenylacetylamino)acetic acid]

More lines, now with the values behind:

Compound | EC50
CCC(OCC1CCCC(OCc2nc(-c3ccc(C)cc3)oc2C)C1)C(=O)O (stereo not drawn) [Example 3, 2-[3-(5-methyl-2-p-tolyloxazol-4-ylmethoxy)cyclohexylmethoxy]-butyric acid] | ≥ 0.07 nM
Cc1ccc(-c2nc(CO[C@@H]3CCC[C@H](CSCC(=O)O)C3)c(C)o2)cc1 (racemic) [Example 22] | ≥ 0.07 nM
Cc1oc(-c2ccc(C(F)(F)F)cc2)nc1COC1CCCC(COC(C)(C)C(=O)O)C1 [Example 16, 2-methyl-2-{(1R,3S)-cis-3-[5-methyl-2-(4-trifluoromethyl-phenyl)oxazol-4-ylmethoxy]cyclohexylmethoxy}propionic acid] | ≥ 0.07 nM
Cc1ccc(-c2nc(COC3CCCC(CSC(C(=O)O)C4CCCCC4)C3)c(C)o2)cc1 (stereo not drawn) [Example 29, 2-[cis-3-(5-methyl-2-p-tolyloxazol-4-ylmethoxy)cyclohexylmethylsulfanyl]-2-cyclohexylacetic acid] | ≥ 0.07 nM
Cc1ccc(-c2nc(COC3CCCC(COC(C)(C)C(=O)O)C3)c(C)o2)cc1 (racemic) [Example 8, 2-[cis-3-(5-Methyl-2-p-tolyloxazol-4-ylmethoxy)cyclohexylmethoxy]-2-methylpropionic Acid] | ≥ 0.07 nM
Cc1ccc(-c2nc(CO[C@@H]3CCC[C@H](CN(CC(=O)O)Cc4ccccc4)C3)c(C)o2)cc1 (relative stereo) [Example 52, 2-{Benzyl-[cis-3-(5-methyl-2-p-tolyloxazol-4-ylmethoxy)cyclohexylmethyl]-amino}acetic acid] | ≥ 0.07 nM
Cc1ccc(-c2nc(CO[C@@H]3CCC[C@H](C[S+]([O-])C(C)(C)C(=O)O)C3)c(C)o2)cc1 (relative stereo) [Example 34, 2-[cis-3-(5-methyl-2-p-tolyloxazol-4-ylmethoxy)cyclohexylmethylsulfinyl]-2-methylpropionic acid] | ≥ 0.07 nM
Cc1ccc(-c2nc(CO[C@@H]3CCC[C@H](CSC4(C(=O)O)CCC4)C3)c(C)o2)cc1 (relative stereo) [Example 31, 1-[cis-3-(5-methyl-2-p-tolyloxazol-4-ylmethoxy)cyclohexylmethylsulfanyl]-cyclobutanecarboxylic acid] | ≥ 0.07 nM
COc1cccc(-c2nc(CO[C@@H]3CCC[C@H](COC(C)C(=O)O)C3)c(C)o2)c1 (relative stereo) [Example 5, 2-[cis-3-(5-methyl-2-(3-methoxyphenyl)oxazol-4-ylmethoxy)cyclohexylmethoxy]propionic acid] | ≥ 0.07 nM
Cc1ccc(-c2nc(COC3CCCC(CSC(C(=O)O)c4ccccc4)C3)c(C)o2)cc1 (stereo not drawn) [Example 28, 2-[cis-3-(5-methyl-2-p-tolyloxazol-4-ylmethoxy)cyclohexylmethylsulfanyl]-2-phenylacetic acid] | ≥ 0.07 nM
Cc1ccc(-c2nc(CO[C@@H]3CCC[C@H](COC4(C(=O)O)CCCC4)C3)c(C)o2)cc1 (relative stereo) [Example 9, 1-[cis-3-(5-Methyl-2-p-tolyloxazol-4-ylmethoxy)cyclohexylmethoxy]cyclo-pentanecarboxylic acid] | ≥ 0.07 nM
COC(=O)N(CC1CCCC(OCc2nc(-c3ccc(C)cc3)oc2C)C1)[C@H](C(=O)O)C(C)C (mixture of isomers) [Example 48, (S)-2-{methoxycarbonyl-[cis-3-(5-methyl-2-p-tolyloxazol-4-ylmethoxy)cyclohexylmethyl]amino}-3-methylbutyric acid] | ≥ 0.07 nM
Cc1ccc(-c2nc(COC3CCCC(CN(C)[C@H](C(=O)O)C(C)C)C3)c(C)o2)cc1 (mixture of isomers) [Example 50, (S)-2-{Methyl-[cis-3-(5-methyl-2-p-tolyloxazol-4-ylmethoxy)cyclohexyl-methyl]amino}-3-methylbutyric acid trifluoroacetic acid salt] | ≥ 0.07 nM

Reference: patent publication US7259177B2, “Cycloalkylmethoxy-substituted acetic acid derivatives, processes for their preparation and their use as pharmaceuticals” (Sanofi-Aventis Deutschland GmbH, priority 2003, dated 2007)
